Earlier results in patent US7220434B2, “Dual-release compositions of a cyclooxygenase-2 inhibitor” (Pharmacia Corporation (of Pfizer, Inc.), priority 2000, dated 2007).

Conditions: rat, oral; nanoparticulate (average particle size 240–300 nm) versus microparticulate (20–30 μm) dispersion

apparent rate of absorption: higher
SMILES: COc1ccc2cc([C@H](C)C(=O)O)ccc2c1 [naproxen]
